Measurements as given in publication PMC7819943, “Rice protein-binding microarrays: a tool to detect cis-acting elements near promoter regions in rice”.
The other results are listed elsewhere or left out.

The chains behind the UniProt entries cited, without tags or fusion partners.
UniProt Q0JBA9, entry or part of it: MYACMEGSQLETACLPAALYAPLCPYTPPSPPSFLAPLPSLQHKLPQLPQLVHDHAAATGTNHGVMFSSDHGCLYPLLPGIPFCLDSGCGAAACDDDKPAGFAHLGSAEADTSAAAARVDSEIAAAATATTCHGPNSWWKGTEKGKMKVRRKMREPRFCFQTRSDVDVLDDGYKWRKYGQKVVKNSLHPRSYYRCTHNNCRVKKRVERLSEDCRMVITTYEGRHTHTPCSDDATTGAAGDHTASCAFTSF

These sequences were tested against OsWRKY34 (Oryza sativa, UniProt Q0JBA9 1-250) (assay: protein-binding microarray (RPBM); PBS, 2% BSA, 51.3 ng/ul salmon testes DNA, 50 uM zinc acetate, 200 nM TF, 25 C, 1 h; high values mean tight binding). Details: protein: recombinant; tags: N-terminal polyhistidine and DsRed monomer fusion (pET32a); label: CyDye5-dUTP incorporated in the synthesized complementary strand; 3' TTTTT single-stranded linker to array surface; dsDNA, one strand shown.
Summary of the method: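 Using Ni–NTA, transcription factors fused N-terminally to polyhistidine and DsRed were purified after expression in E. coli BL21-CodonPlus. These were incubated at 200 nM with a blocked, double-stranded custom Agilent array for 1 h at 25 °C in a buffer containing 50 µM zinc acetate, and the array was washed. The binding signal is per-feature fluorescence intensity (arbitrary units) on an Axon 4000B scanner.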

Sequence	binding signal
GTACTGGTTAGTTTTGTCTTGGCTCTGAAACTTTTATAGCCGGAGTCACCTAGTGCAG	12000 fluorescence intensity (a.u.)
TAATCACCCTATTAACCTGCATTTCTCATCTACCCCTTCACGGAGTCACCTAGTGCAG	9900 fluorescence intensity (a.u.)
GTAGCTCATTTTCTTTGACGTGTATTTTTGTGTCTTACATCGGAGTCACCTAGTGCAG	8840 fluorescence intensity (a.u.)
GGGTGTCAAATTTTTAAGTATCACATCGGGTATTATATAGCGGAGTCACCTAGTGCAG	9600 fluorescence intensity (a.u.)
CAGTTTTGACTCCGGTTTTATTCGATGTGGCAGCTGACTCCGGAGTCACCTAGTGCAG	13200 fluorescence intensity (a.u.)
TTTGTTCAGGTTATATTATGTTGTCAATAGAAAATTTATTCGGAGTCACCTAGTGCAG	8090 fluorescence intensity (a.u.)
TATTTCCTTTAACCTTTCCCCTTGCTGGTTCTTTTATCTTCGGAGTCACCTAGTGCAG	13700 fluorescence intensity (a.u.)
TCTCAGTTCTCACCCTGCTAGGCTGCTAGACCCTCTCTTCCGGAGTCACCTAGTGCAG	8180 fluorescence intensity (a.u.)
GTGCATGGTGGCGGTGGAGGTTCATGTGTTCTTGGTTGAACGGAGTCACCTAGTGCAG	10300 fluorescence intensity (a.u.)
ATACCGTTTCCTTTTCTTGTTCACTTGTTTTAAACTGACCCGGAGTCACCTAGTGCAG	9060 fluorescence intensity (a.u.)
TGCATCCTTCTACCGCCCGCATTGCTTTTGCTCCCTCCTCCGGAGTCACCTAGTGCAG	8160 fluorescence intensity (a.u.)
TCGTGAAATCAAACCATTTTTCTATACCCAGCTTCGTCTTCGGAGTCACCTAGTGCAG	9370 fluorescence intensity (a.u.)
CGGAGGTGACAAAAACTATCTGCTCCACTTTCATCCCTACCGGAGTCACCTAGTGCAG	8310 fluorescence intensity (a.u.)
GGTTGCTTCCATAATCCCCAGTCCCCACTACTGCTCATCACGGAGTCACCTAGTGCAG	11000 fluorescence intensity (a.u.)
TTCTTGCCCTGCTTGTTCATTTATCTTATTCAAAATATTTCGGAGTCACCTAGTGCAG	9580 fluorescence intensity (a.u.)
GATTCGTTGACATACCTCAGATGAACTTATTCCTAGGGCACGGAGTCACCTAGTGCAG	8090 fluorescence intensity (a.u.)
ACTCTTCGCTCCGCCGCCGTCTCCTCCGCCTCGGGCTTTCCGGAGTCACCTAGTGCAG	11000 fluorescence intensity (a.u.)
CTTTCTTCTCGCTTGCTGAAGGCGGCTCTTTTACGTCTGTCGGAGTCACCTAGTGCAG	9670 fluorescence intensity (a.u.)
TATATAACTTAACATGTTTCATCACTAACTACCTAAGCTACGGAGTCACCTAGTGCAG	8270 fluorescence intensity (a.u.)
GCTCACCGGACAACATTTCATCGTCGATCATCAACCGCATCGGAGTCACCTAGTGCAG	9770 fluorescence intensity (a.u.)
AACCCCTTATACACCTACTACGCATCTACTAGTACCACTACGGAGTCACCTAGTGCAG	8530 fluorescence intensity (a.u.)

Sequence	binding signal
CACCTGCGCCTCTCCACCGGTGATCTCCTCCCTTCTCACCCGGAGTCACCTAGTGCAG	8540 fluorescence intensity (a.u.)
ACCGGCCAACCCTCCCCACCCCAGCCGCCGGCCGCCAGGCCGGAGTCACCTAGTGCAG	8520 fluorescence intensity (a.u.)
GGAGGGGCGGCGATCGAGCAGAGCAGGGGAGGGAATCCTGCGGAGTCACCTAGTGCAG	8310 fluorescence intensity (a.u.)
CCTATGTTATTACCTTGACGGCTTGACCGCTCGACTCTATCGGAGTCACCTAGTGCAG	8410 fluorescence intensity (a.u.)
TTTCGTGATTTTCCCCGGTTGGCCACTACTTTTGCGATTTCGGAGTCACCTAGTGCAG	9570 fluorescence intensity (a.u.)
CACCCCTACCTGGCGCGCCAACTGTCGAAACAATATTTCACGGAGTCACCTAGTGCAG	8810 fluorescence intensity (a.u.)
GCCGGAGTCCATCGCCCTACATTGCCCACCAACCGCACGCCGGAGTCACCTAGTGCAG	10200 fluorescence intensity (a.u.)
ATTCCCGCCTTGGCGTTTGCTTCGTCTTCCCCGTCGCATTCGGAGTCACCTAGTGCAG	11100 fluorescence intensity (a.u.)
ATTCTCCTCCCCGCCGGCCTCTTATCCATACTGCGAGATGCGGAGTCACCTAGTGCAG	8390 fluorescence intensity (a.u.)
GCACGACCTTAATAATGCATGCGTAACTGTTCTCCCGTCACGGAGTCACCTAGTGCAG	9530 fluorescence intensity (a.u.)
AGTCACCGCCGCCGCATCTGCCGCCCCGCGAGTCGCCGTCCGGAGTCACCTAGTGCAG	8460 fluorescence intensity (a.u.)
GTTCGGGGCGTGACAATATGTTAGGGTGTGACAGTTAGTTCGGAGTCACCTAGTGCAG	8130 fluorescence intensity (a.u.)
GAGCTCTGTTCTTTTCCCCGTTTCTTGGTACTGGTGATTCCGGAGTCACCTAGTGCAG	10700 fluorescence intensity (a.u.)
ACTCACTCATCACTTCTGTTCCTTGAATTTATTTGTATTTCGGAGTCACCTAGTGCAG	13000 fluorescence intensity (a.u.)
AGGCACGCCACGCACCCACCGCTCACCAATCCCCAATTCCCGGAGTCACCTAGTGCAG	11800 fluorescence intensity (a.u.)
GTAGGGCTGAAATTTTACATGTTGCATGGTCGTTGGACACCGGAGTCACCTAGTGCAG	9190 fluorescence intensity (a.u.)
CTGAAGTATTTTGCAAACCATTTTACATATATACATTTGTCGGAGTCACCTAGTGCAG	8530 fluorescence intensity (a.u.)
AGTATTTTATAGCGGTCTTTAGATTTATGAGGTCTATTACCGGAGTCACCTAGTGCAG	8530 fluorescence intensity (a.u.)
TTGTCATCTTCCACTCTGTCTTGTCTTTTCTCTGCCTTGACGGAGTCACCTAGTGCAG	9340 fluorescence intensity (a.u.)
CATCGGTTTTCTGGGTGTACGGTGTACCCCACGTGTTAGGCGGAGTCACCTAGTGCAG	8510 fluorescence intensity (a.u.)
GATTTGCTAGTCCTCACGGCCGCACGCTCTCGCATCCTCGCGGAGTCACCTAGTGCAG	9810 fluorescence intensity (a.u.)

Quoted at random: 2 records from the list.
Sequence	binding signal
CACCCCTACCTGGCGCGCCAACTGTCGAAACAATATTTCACGGAGTCACCTAGTGCAG	8810 fluorescence intensity (a.u.)
CCTATGTTATTACCTTGACGGCTTGACCGCTCGACTCTATCGGAGTCACCTAGTGCAG	8410 fluorescence intensity (a.u.)
